In patent US20220315908A1, “NOVEL GARDNERELLA ENDOLYSINS AND USES THEREOF” (priority 2019, published 2022):
For at least one compound, name, drawing or mass did not settle the structure.

Tested on: all tested Gardnerella strains
Experiment: MIC and MBC microbroth dilution, stated over all tested strains
Format: cell-based
Conditions: MIC microbroth dilution
Method: One of the main deficiencies in the treatment of BV is the high rate of recurrence in many women, which leads to repeated administration of antibiotics and concomitant destabilization of the microbiome and other side effects. The minimal inhibitory concentration (MIC) and minimal bactericidal concentration (MBC) on Gardnerella cells of the strains also used for the endolysin activity assays were then measured using the method described in Reference Example 6 and 7. […] Essentially, Gardnerella suspensions at 2.5×10^7 CFU/ml were incubated with the concentration of antibiotics as indicated and incubated for 48 h at 37° C. under anaerobic conditions. […] OD(610) was measured at the beginning and the end of the experiment. […]
The conditions under which MIC and MBC were measured are more rigorous than the standard.
Example 7—Activity assays of a representative (H2B10) of domain swapped endolysins on the growth in suspension of different Gardnerella strains. […] The conditions under which MBC was measured are more rigorous than the standard. […]
Bacteria were plated from cryo stock on BD Choc Agar plates (Gardnerella) and incubated at 37° C. for 48 h under anaerobic conditions. […] It has to be noted that two Tecan Microplate readers, having respectively a 610 nm or 620 nm filter, have been used interchangeably in the experiments. […]

CCC[C@@H]1C[C@@H](C(=O)N[C@@H]([C@H]2O[C@H](SC)[C@H](O)[C@@H](O)[C@H]2O)[C@H](C)Cl)N(C)C1 [Clindamycin]
susceptibility of the Gardnerella strains, in words: resistant
